Assay results taken from article doi:10.1101/2022.01.21.477277.
Results are given in words; binding and its absence hold for the method and conditions named. A result given as binding can be weak or reduced; the word gives no strength. Where a sequence is shown, tags or fusion partners need not be part of it. For some of these results: In cells and extracts the contact can be indirect.

B1: Flag tagged Poe-F1 (aa 1-1100) (domain or fragment, UniProt Q9VLT5 1-1100)
chain: MSAHSGGTDWNSVVKALILNRTGALNKNEVVNLLKAITRCEHDFFEEESNFTQFYTAFAALAADKLMQIKTICQTQICQLHDATAVLIRFIIYRLPRVSVYETKWLLGALKMLCEGRECPASASSSMFDYNAVANVLKSCKHPESTTKSIMPSSSSSGSGASNDKESPKSEIKRSRSDLSSVILQQLIAPLEPGKMTWVPLSEEVTDCTEQILAANVEYFQEQNGVDTLLDVCVSLPILNRYRSKYMETINGGKSLYLPLTQVEATAVKSSMNHMLTDLTILSQAQALIEMQPLTPSRIERLSMCGIAALYNAVLTSIATSVLGMSQASSSQKQTASTSQGSGVGGSSGGQSNKDHDDFEDQACSIVNKALEIYSNIGHMFKTSARIHVYQNHLCYGSWLLISGIQGAMGASGSGGSSSDSASKSASKATKSGSEAGTAPTTPIARVNLFKVQQGFGELNAAIANHSIKLLSELIEDLKVEAACGQSLESTELPEPAQFDILQNYSSLERIVRVLNTATLHQLFTFLATVAYRKACTLKRASAKDRTECEPISYSDSTTYFNDSLSCSDNSEEDDSESYLGHWFKETLSPETHDDNANTSTQERAEQKSALVPKLDEPHEYLDLAADIFCFLDQFLANRHAYMQRYVKAGVSDQQMLLMANIIKDFDRDVMRNESDQGSGNAPAASAGAGTSAGASTKWQTSMIRFSGAAGRYIHNLISTSLLSEQLQSNLLQHLSISPWSTDTNTWPLQVYPSTLSVLVQILLLKPTQEKEAACLSVWHRLINTLVEGVCSSNTASDSDYEDLNIEHAQLLLFLFHSLNLMQKKSILLLTAGGVIRCAEVCRGISEDRPVKNSQIMLLSRLLLFLEYLMKHLYNAPPELLDQVRWNLFSVSSMPDTQKITDLLNCRTKLNSYCRHDIEENFRKSAGEYGSSIRPTFYSLVMGDPEISYWAQEFKLDGLAWNFILCTPDKLKYPLLVDALTDILSITDMSMYSKEKDKEASMHNLCAIQYCFTIAWKLNLGLPPSTSHVESLKAERSPNLHSLMWSIRLPLASSHYLVVSSLIKQGMYTQYAETLWTHVGDIGADIKYSLKQTILGVEAF
B2: Flag tagged Poe-F2 (aa 1101-2300) (domain or fragment, UniProt Q9VLT5 1101-2300)
chain: NSQMNGNGTPRLSDLILFDSLVAHMQAVAWANKEGLKWPRKESEDAAGEQSAGTSLTSSSNDPELYSSNESIDDQKLKQDDDGKLSSDLQKYNQLVNELMVKLMNSYQLLSVIVRGQMLKQLSSSTPEKALNLIVPIVSDKPAIMLELHAAFLKLLPNEDKQLIANEWPKCLMVNDFAFNGKQHPVEPYILNVIDAHIIELTRGSNYSTLHTLKHCLKSILQLFELLLPHRTANAEVETQLKQLLISSMLDMRTDYLQGHSEHCLREILSGLTQEAQKLLLYEHMVGYCYRMLKEFAADLRQPQSAGPSGGAPLDQDRAMFNESMLFAVLKTMFKMLEKPVAVQAMRQFFKDQRSGSLTTLLLSFTGTSLPVSYARKMLQFVNRLFQLSLQADSQFQHEDLVECFSELATVDVARLKQWLGHIIYGPNVSTDVSTSEALDTTCRMLTSILQPSSSSSSNAQTPTNMATVSAMPSISDQLDPMEIEYDCGTAAGGGESNPGTGGAAANTSQILSLWQAAQPNPSEESSQACDHSDSERNGALLLSFVKSLVKDQSKASQIAPPLFQALLQLGQTLISPPQEGCDFADVLQIMITLADASPARGHVALFNTTLLWLELAKLQLPDKHLKHAENVSAQLRYLSELLQSIGFRGSRQHNPPWDDELQTDIDELYDELAEEGEQDSLLDDSDEDTLNNKLCTFSQTQKEFMNQHWYHCHTCNMINTVGVCSVCARVCHKGHDVSYAKYGNFFCDCGAKEDGSCQALSRRIGSNEVRDSAGIGSYLPSHMSLLAGKKRSSLPVGQPVLTRKDSLTNERIAVLTKLLEPYRETLQHQDQWLLVVRCILEYFDLLLPSINENCMLYSIVGCHKRATAALERLHLLEQSFQVTDQLMFATLGSQEGAFENVRMNYSGDQGQTIKHLLSSGVVRRVAFCCLSSPHGRRQQLAVSHEKGKVTILQLSALLKQADASKRKLTLTQLSSAPIACTVISLAANPCNEDCLAVCGLKECHILTFSSSGSTNEHIVVNPQLENGNYIKKAVWLPGSQTLLAVVTSDYVKIYDLAVDTYSPKYYYLVAVGKIRDCTFVYQDGNYNMLTFASSGYIYTQQLDQQSLAVHGDFYVTNTLELSHQHIKDIAGHIGGGGVSIYYSHTLQLLFYSYSCGRSFFSPLTNVSEGVKGIYHLDTNSASKSASKGPLQPLVQWTEV
B3: Flag tagged Poe-F2-ZnF (aa 1621-2040) (domain or fragment, UniProt Q9VLT5 1621-2040)
chain: NPSEESSQACDHSDSERNGALLLSFVKSLVKDQSKASQIAPPLFQALLQLGQTLISPPQEGCDFADVLQIMITLADASPARGHVALFNTTLLWLELAKLQLPDKHLKHAENVSAQLRYLSELLQSIGFRGSRQHNPPWDDELQTDIDELYDELAEEGEQDSLLDDSDEDTLNNKLCTFSQTQKEFMNQHWYHCHTCNMINTVGVCSVCARVCHKGHDVSYAKYGNFFCDCGAKEDGSCQALSRRIGSNEVRDSAGIGSYLPSHMSLLAGKKRSSLPVGQPVLTRKDSLTNERIAVLTKLLEPYRETLQHQDQWLLVVRCILEYFDLLLPSINENCMLYSIVGCHKRATAALERLHLLEQSFQVTDQLMFATLGSQEGAFENVRMNYSGDQGQTIKHLLSSGVVRRVAFCCLSSPHGRRQQ
B4: Flag tagged Poe-F3 (aa 2301-3500) (domain or fragment, UniProt Q9VLT5 2301-3500)
chain: TGHPGLVYASMQTSNNPIILMITPERIYLQEIKAQSAKSRIMDVVGIRHAVAGVEKTTLLLLCEDGSLRIFSAQPEYTSFWLSPQVQPFGNQLYSSTLMAKGGGSGSTSKSKSNTASGKMTSRKASQQQKQPTAGGQPVFPIDFFEHCNMLADVEFGGNDLLQIYNKQKLKTRLFSTGMFVASTRSNGFTLEVINNDPNVVIVGIRVLIGTQDVQRAPQSVTILGRTIPTPVRRARWFDIPLTREEMLQSDKLLKVVFAKAPDPEHVTLLDCIEVYGKSKELVGWPDESEDVTVPGSSAPAVSSSQASSANFGEGFNCITQLDRMANHLLEVMDCALHLLGSGVPASMRQKAVKTASALLLLPTPNPVQTQARYVLATLYGTRALYHNYKDGVLLQFVNRELQSMQPKLEKLETLREIDPEAFYRLVLMVRGIANARPQSLAKICVENNYDIVPTLMGIVLELHKVTPTLDEPVNIVKRGLCQPETIVHCLVEIMYGFALADPGQVGRMTKYFIDLLKHDASVISHSAKEALILLLSPRMKRRKVAIVTPPACSTPTPSTSTMQALQAAASSAASDIIEEAAGVVVDGSVGGGGLPEPNADAEGAAVGVGGVGQQQMLNLEAFMGGGFPRLLGLPEDADDEAIMDIAIALSLQQHGGDANALQSLQQGLANLQGIRQATAMAAAVNAAANVSLGGSDDDEGSNVATDGSTLRTSPAEPAGSGGSESGGSGVESIGGTSARSSNFGDHANASPPRQGSTKDDQEQPGPSGVAGSGGVAVLSAMSSSEDNEANEDDKLSKLHDLRIAVLESIIQHLGTFDLCNGLQAIPLIQVILMLTTDLNGNNERDQQVLHDLLTALVDYVEIGKRGAAARMETKCPGNEVRLALLSLFGVLMGKTKSKQTGTTSPPHQFKDNSSFVASTTANVLSKSGAFVYALEALNTLLVHWKNVLGDPYAAGGGLASQSAQASGGASGPGVQLLKPIKHGPKPDISILIPHNYLKNYPDIFESYDGLLTEIIVRLPYQILRLSSAHPDNYDSGFCEAMTFTLCEYMMLNLNTLLRRQVRKLLMYICGSKEKFRMYRDGHSLDAHFRVVKRVCNIVSSKTGAPYNANPPMLSYDALVELTEHLRTCQEISQMRTGNWQKFCVVHEDALAMLMEIACYQLDDGVSPIIIQLLQAAVCNLPPPSGSKQAQPQPSTSSAS
B5: Flag tagged Hyd F4 (aa 2412-2887) (domain or fragment, UniProt P51592 2412-2885)
chain: AKIPNLESVQVGTNHSKYVVPFSSILRSRTVSGSSRDQSTLQRRGSNSKILWRSARERKALNLDARPYTPPNSSDNATPESLNDHLSVHLQQIGERLYPKIHSINQTHAPKITGMLLEIPTPQLLSVISSDETLRQKVNEAIEIITFKQKSETSAQSSQPKKSPSVVVVDPVDDDNEPLFYSPGKRGFYTPRQGFASFERINAFRNIGRLIGLCLLQNELLPLFLQRHVLKYILGRKIKFHDLAFFDPALYESFRQIIQNAQTKEGEETINRMELCFVIDLMKEEGCGNRELIPGGRDVAVTSSNIFEYVRRYTEYRLIKSQEKALEALKDGVFDVLPDNSMINLTAEDLRLLLNGVGDINVSTLISYTTFNDESSEGPDKLLKFKKWFWSIVEKMNIMERQDLVYFWTGSPALPASEEGFQPLPSVTIRPADDSHLPTANTCISRLYIPLYSSKSILRSKMLMAIKSKNFGFV
B6: Poe^F1 (aa 1-1100), yeast two-hybrid fusion (domain or fragment, UniProt Q9VLT5 1-1100)
chain: MSAHSGGTDWNSVVKALILNRTGALNKNEVVNLLKAITRCEHDFFEEESNFTQFYTAFAALAADKLMQIKTICQTQICQLHDATAVLIRFIIYRLPRVSVYETKWLLGALKMLCEGRECPASASSSMFDYNAVANVLKSCKHPESTTKSIMPSSSSSGSGASNDKESPKSEIKRSRSDLSSVILQQLIAPLEPGKMTWVPLSEEVTDCTEQILAANVEYFQEQNGVDTLLDVCVSLPILNRYRSKYMETINGGKSLYLPLTQVEATAVKSSMNHMLTDLTILSQAQALIEMQPLTPSRIERLSMCGIAALYNAVLTSIATSVLGMSQASSSQKQTASTSQGSGVGGSSGGQSNKDHDDFEDQACSIVNKALEIYSNIGHMFKTSARIHVYQNHLCYGSWLLISGIQGAMGASGSGGSSSDSASKSASKATKSGSEAGTAPTTPIARVNLFKVQQGFGELNAAIANHSIKLLSELIEDLKVEAACGQSLESTELPEPAQFDILQNYSSLERIVRVLNTATLHQLFTFLATVAYRKACTLKRASAKDRTECEPISYSDSTTYFNDSLSCSDNSEEDDSESYLGHWFKETLSPETHDDNANTSTQERAEQKSALVPKLDEPHEYLDLAADIFCFLDQFLANRHAYMQRYVKAGVSDQQMLLMANIIKDFDRDVMRNESDQGSGNAPAASAGAGTSAGASTKWQTSMIRFSGAAGRYIHNLISTSLLSEQLQSNLLQHLSISPWSTDTNTWPLQVYPSTLSVLVQILLLKPTQEKEAACLSVWHRLINTLVEGVCSSNTASDSDYEDLNIEHAQLLLFLFHSLNLMQKKSILLLTAGGVIRCAEVCRGISEDRPVKNSQIMLLSRLLLFLEYLMKHLYNAPPELLDQVRWNLFSVSSMPDTQKITDLLNCRTKLNSYCRHDIEENFRKSAGEYGSSIRPTFYSLVMGDPEISYWAQEFKLDGLAWNFILCTPDKLKYPLLVDALTDILSITDMSMYSKEKDKEASMHNLCAIQYCFTIAWKLNLGLPPSTSHVESLKAERSPNLHSLMWSIRLPLASSHYLVVSSLIKQGMYTQYAETLWTHVGDIGADIKYSLKQTILGVEAF
B7: Poe^F2-ZnF (aa 1621-2040), yeast two-hybrid fusion (domain or fragment, UniProt Q9VLT5 1621-2040)
chain: NPSEESSQACDHSDSERNGALLLSFVKSLVKDQSKASQIAPPLFQALLQLGQTLISPPQEGCDFADVLQIMITLADASPARGHVALFNTTLLWLELAKLQLPDKHLKHAENVSAQLRYLSELLQSIGFRGSRQHNPPWDDELQTDIDELYDELAEEGEQDSLLDDSDEDTLNNKLCTFSQTQKEFMNQHWYHCHTCNMINTVGVCSVCARVCHKGHDVSYAKYGNFFCDCGAKEDGSCQALSRRIGSNEVRDSAGIGSYLPSHMSLLAGKKRSSLPVGQPVLTRKDSLTNERIAVLTKLLEPYRETLQHQDQWLLVVRCILEYFDLLLPSINENCMLYSIVGCHKRATAALERLHLLEQSFQVTDQLMFATLGSQEGAFENVRMNYSGDQGQTIKHLLSSGVVRRVAFCCLSSPHGRRQQ

biological target: GFP tagged N-terminal region of PLP (F1-3), aa 1-1811 (Drosophila); assay: co-IP

binding, binds:
B1
B2
B3
B4
B5

biological target: PLP^F2-F3 (aa 584-1811), yeast two-hybrid fusion (Drosophila); assay: two-hybrid

binding, binds:
B6
B7
